From article PMC1079787

Molecular target: T1, proteinA/[His]6-tagged Trf4p (S. cerevisiae) (UniProt P53632)
T1 sequence: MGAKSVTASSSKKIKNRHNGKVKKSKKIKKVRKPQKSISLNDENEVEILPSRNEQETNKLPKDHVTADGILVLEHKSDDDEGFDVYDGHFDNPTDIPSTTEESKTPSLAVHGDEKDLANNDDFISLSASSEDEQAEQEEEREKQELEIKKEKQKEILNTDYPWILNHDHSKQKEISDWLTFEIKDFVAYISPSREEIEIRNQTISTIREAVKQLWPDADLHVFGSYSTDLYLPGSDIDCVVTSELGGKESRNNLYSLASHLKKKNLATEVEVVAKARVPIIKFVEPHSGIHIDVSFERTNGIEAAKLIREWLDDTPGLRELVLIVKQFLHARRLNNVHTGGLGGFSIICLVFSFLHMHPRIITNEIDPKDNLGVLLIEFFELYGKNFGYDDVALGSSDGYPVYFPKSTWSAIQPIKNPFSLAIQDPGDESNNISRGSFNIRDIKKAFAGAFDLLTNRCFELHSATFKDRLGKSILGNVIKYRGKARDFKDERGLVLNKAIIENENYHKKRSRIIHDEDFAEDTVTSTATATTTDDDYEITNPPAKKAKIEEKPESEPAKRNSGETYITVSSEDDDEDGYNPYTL
Assay: affinity purification with mass spectrometry; proteinA/[His]6-tagged Trf4p purified from yeast extract on IgG Sepharose and Ni2+-NTA agarose; SDS-PAGE, Colloidal Coomassie bands identified by MS-MS

B1: Hul4p (protein, UniProt P40985 1-892)
chain: MVSLFDKLNAKKDGRDGSVSKELLSHSVAHTKNRLPKSGRRTSERSLAASVKDGSCSNSKSNKRNSSASVSGEEDKSCLISLNCLCCGVPLRFPASITKFRCSACQVTVIVKEPEINSNLESSTHISCTLEGLQMVVRRCHDDLQRLKKTGILDKERKGLIFQPVITYLLDRFHDVSILNRSFLVHDGGKNIKMLNYEVLQRFYSILSNLPTRKPYYSMLCCCNDLLKRITINKGENLQILQYRWLLIILNIPTIRTCLIRDRKSKNVFETQQIRAVSYELAKRCIGYLSNLSTKTSQQLIQSLRRTPTDNFSYQVEILNLYINFQFSRLLSNELSNRTAKNNVKPEDEMRSRLRRHHTTGHEFLSTRPISAQSNDKQGSGFTHPVNNKMKFKFFQYEEDWHIHSAAKLTFIYYVANTRRNGRGALSIQSFYNITLDFIDYKQDFDHWRGVAQKTKMNQLIEEWGNSTTKKCFSFCKYPFILSLGIKISIMEYEIRRIMEHEAEQAFLISLDKGKSVDVYFKIKVRRDVISHDSLRCIKEHQGDLLKSLRIEFVNEPGIDAGGLRKEWFFLLTKSLFNPMNGLFIYIKESSRSWFAIDPPNFDKSKGKNSQLELYYLFGVVMGLAIFNSTILDLQFPKALYKKLCSEPLSFEDYSELFPETSRNLIKMLNYTEDNFEDVFSLTFETTYRNNNWILNDSKSSKEYVTVELCENGRNVPITQSNKHEFVMKWVEFYLEKSIEPQYNKFVSGFKRVFAECNSIKLFNSEELERLVCGDEEQTKFDFKSLRSVTKYVGGFSDDSRAVCWFWEIIESWDYPLQKKLLQFVTASDRIPATGISTIPFKISLLGSHDSDDLPLAHTCFNEICLWNYSSKKKLELKLLWAINESEGYGFR
binding: binds

Results are given in words; binding and its absence hold for the method and conditions named. In cells and extracts the contact can be indirect. Here binding means that the protein was enriched with, or labelled near, the bait; the list need not be complete. Sequences can lack the tags named with a protein.
